Data reported in US20250352527A1, “METHODS FOR TREATING VIRAL INFECTIONS, ORGAN INJURY, AND RELATED CONDITIONS” (Akebia Therapeutics, Inc., priority 2021, published 2025).
“Also recorded” adds a separate entry of the source. At least one compound was matched to its structure with a doubt left.

Tested on: TNFα
Assay: Luminex cytokine levels in BAL: TNFα
Format: in vivo, mice
Details: 3 mg/kg PO 1x 1 h pre-LPS; 6 hours post-LPS; vs vehicle disease control
From the text: All animals survived to study termination.
• 1. […] Seal the plate with a plate sealer.

C[C@@H]1C[C@H]2[C@@H]3CCC4=CC(=O)C=C[C@]4(C)[C@@]3(F)[C@@H](O)C[C@]2(C)[C@@]1(O)C(=O)CO [dexamethasone, reference compound]
TNFα levels in BAL fluids: significantly reduced; also recorded: significant reductions
